Reference: the supplement of paper PMC3334620
The full ranking holds about 33,000 sequences; the median of “E-score (-0.5 to 0.5)” is about -0.0014, and the highest 2% start at about 0.25. The list shows a part of the results.

Target: T1, Cad1 (UniProt P24813)
T1 sequence: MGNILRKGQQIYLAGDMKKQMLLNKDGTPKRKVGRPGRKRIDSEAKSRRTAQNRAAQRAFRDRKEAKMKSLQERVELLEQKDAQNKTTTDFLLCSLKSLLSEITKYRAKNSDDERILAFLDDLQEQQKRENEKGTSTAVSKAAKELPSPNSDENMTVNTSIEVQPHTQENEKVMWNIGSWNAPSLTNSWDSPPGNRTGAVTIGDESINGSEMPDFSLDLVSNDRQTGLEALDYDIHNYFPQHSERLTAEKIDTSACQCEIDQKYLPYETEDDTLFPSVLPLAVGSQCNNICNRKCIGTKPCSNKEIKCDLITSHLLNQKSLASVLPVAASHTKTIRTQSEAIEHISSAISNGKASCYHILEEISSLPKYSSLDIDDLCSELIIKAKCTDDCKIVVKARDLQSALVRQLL
Test: PBM E-score (8-mer binding enrichment) (E-score (-0.5 to 0.5)); higher = stronger / more preferred TF binding
Conditions: protein concentration: 100 nM; construct: GST-full length
Summary of the method: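 Yeast transcription factors carrying a GST tag, as full-length proteins or DNA-binding domains, were produced by PURExpress in vitro transcription/translation. About 100-200 nM protein was applied to universal all-10-mer Agilent arrays, double-stranded by primer extension on fresh or once-stripped slides. Bound protein was detected with fluorescent anti-GST, and scans were normalised with masliner. The Universal PBM Analysis Suite gave each ungapped eight-base word, pooled with its reverse complement, an E-score, a modified Wilcoxon-Mann-Whitney statistic.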

Row | Sequence | PBM E-score
1 | AGGGGTGG | -0.023
2 | GATCAAGC | -0.0801
3 | CGCCTGGC | -0.00971
4 | ACAAGACG | -0.105
5 | CATCCGTA | 0.0222
6 | CACACGTG | -0.0205
7 | GAGCACCA | -0.0765
8 | CCGCCAAG | -0.229
9 | ACCTAAGA | -0.118
10 | CCGATTTA | 0.0459
11 | ACAAATCT | 0.163
12 | ATACCATG | -0.0699
13 | AGGAATAA | 0.0754
14 | ACCCTGCC | -0.176
15 | GGCTCGCA | 0.0651
16 | GATGCGAA | -0.0837
17 | ATGTATCC | -0.0106
18 | ATTGGAAG | -0.106
19 | GCACAATA | 0.0602
20 | ACCAAGCC | 0.0385
21 | AGTTGTGG | 0.0768
22 | AAGGCTAC | -0.0943
23 | ACGTGTGG | -0.0185
24 | CTCGGCAC | -0.112
25 | CGTTCTGC | 0.221

Row | Sequence | PBM E-score
26 | GGGCAAAC | -0.0769
27 | TAGCCGGA | 0.107
28 | CCCAGAAA | 0.0763
29 | GAAGAGTA | -0.0219
30 | AACGACAG | 0.0039
31 | GACGCCAA | -0.067
32 | AAATAGAG | -0.0934
33 | CCAAGCTA | -0.194
34 | CGGGAACA | 0.0385
35 | TCTTGGCA | 0.0914
36 | AATCTAAG | 0.0856
37 | AGTTTAAT | 0.144
38 | ACATGGTC | 0.0225
39 | CCTGAGCC | -0.176
40 | AAACCGCT | -0.0723
41 | CCAACATC | -0.0678
42 | ATTCACCA | 0.135
43 | CTTGTACA | -0.0604
44 | CTACACCA | -0.0458
45 | AAACGAGC | 0.0793
46 | ACACGTCT | -0.107
47 | GCAATCGC | -0.0759
48 | ATTGTCTA | 0.17
49 | ATCTGATA | -0.203
50 | CCACAATA | -0.0654

3 records drawn at random from the list so far:
Row | Sequence | PBM E-score
32 | AAATAGAG | -0.0934
41 | CCAACATC | -0.0678
26 | GGGCAAAC | -0.0769

Continuation:

Row | Sequence | PBM E-score
51 | CTAATTGA | 0.00473
52 | CGTAGGCA | -0.221
53 | AATGGCTC | 0.00333
54 | GCTCGTTA | 0.052
55 | ATAACAAC | 0.0949
56 | ATATTAAC | 0.224
57 | GCATACCC | -0.194
58 | CTCTGCCA | -0.194
59 | CTCGGACA | 0.146
60 | CCTAACTC | -0.153
61 | CAAACGTC | -0.169
62 | GATATCAA | 0.211
63 | GAACTGCA | 0.0499
64 | GACTCCAA | -0.0508
65 | TGTGGCAA | 0.0896
66 | CATGGGAG | -0.0423
67 | CAAGACTA | -0.188
68 | ACACTGAA | 0.154
69 | GCGACAAA | -0.00034
70 | ATCTCAAA | 0.0313
71 | CAGACTTA | -0.0002
72 | CGCGGTAG | 0.067
73 | CCTGACCA | 0.106
74 | GCTACAGA | -0.224
75 | TCATACCA | 0.0936

Exported as tab-separated lines: entries from further up.
Row	Sequence	PBM E-score
51	CTAATTGA	0.00473
52	CGTAGGCA	-0.221
53	AATGGCTC	0.00333
54	GCTCGTTA	0.052
55	ATAACAAC	0.0949

Following part

Row | Sequence | PBM E-score
76 | ACAGGATA | 0.0385
77 | TCTCCGAA | 0.0727
78 | AACATACC | -0.0577
79 | AGATTGAA | 0.0719
80 | CCCGCCCG | 0.198
81 | ACCTCCCC | -0.167
82 | ATACCTCC | -0.104
83 | ACGCTCCA | 0.0354
84 | GCGGTAAA | 0.112
85 | CGGCCTCC | -0.0902
86 | GAATAGGC | -0.0653
87 | AAACGATC | -0.00352
88 | AGCTGACC | 0.198
89 | CGCGAACG | 0.139
90 | AAGGCCGA | 0.176
91 | ACCTACGC | 0.106
92 | ATGGACGC | 0.114
93 | AGACGTAG | 0.0693
94 | AGTAACAT | -0.00328
95 | AGCATGAT | -0.0237
96 | GGGATCCC | -0.132
97 | CAGTCTCA | 0.027
98 | ATGCCAGC | -0.159
99 | GATCCTCA | -0.00725
100 | AGGGCACA | -0.116

Row | Sequence | PBM E-score
101 | AGCATTAC | -0.00103
102 | GGGATGAA | 0.047
103 | AAAACTTC | 0.0603
104 | AGTGCTTC | -0.157
105 | GAAGGTGA | -0.149
106 | ACTACTGA | -0.0674
107 | ATAAACCA | -0.0728
108 | ATCGCCTC | 0.0483
109 | ACTGCCGG | 0.0364
110 | AAAGTATC | 0.169
111 | AGGAATAG | 0.0547
112 | CTCGGCCC | -0.0795
113 | ACTCACAG | 0.126
114 | CTCCGATC | -0.0931
115 | TGCCTGAA | -0.0201
116 | AATCTCCG | 0.0886
117 | GAGGCATA | -0.0176
118 | CATTTCAA | 0.174
119 | GCTGGAAA | 0.145
120 | CCACAGAG | -0.0523
121 | CCAAAACA | -0.111
122 | TCTATGAA | 0.1
123 | ATCCCAGA | -0.0262
124 | ACCTGCCA | -0.0914
125 | GGCTGCAA | -0.0399

An excerpt of these results, as tab-separated lines:
Row	Sequence	PBM E-score
117	GAGGCATA	-0.0176
122	TCTATGAA	0.1
124	ACCTGCCA	-0.0914

Continuation.

Row | Sequence | PBM E-score
126 | TGCTTCAA | 0.00302
127 | ACATTCCA | 0.12
128 | ATAGAGGA | -0.207
129 | AGGCAGTG | 0.0381
130 | ACCTCTCG | -0.24
131 | ATGTAGCG | -0.0465
132 | AATGGATC | 0.00673
133 | GAGATAAA | 0.0996
134 | ACCTCAGA | -0.0991
135 | AGGCCGCC | -0.177
136 | ACCGGCCA | -0.129
137 | GAGATCCC | -0.0668
138 | CTCACAAC | 0.156
139 | ATCCTCGA | 0.219
140 | TAATCGGA | 0.152
141 | CGTTAAGA | 0.0284
142 | TGTGGTAA | 0.147
143 | AGTCACAT | -0.0246
144 | ATGGTCAC | 0.0209
145 | CGCGAGAG | -0.0112
146 | ACGGAAAA | 0.24
147 | AACCGGAC | 0.0203
148 | CCCATCCC | -0.142
149 | GCGTCGAA | 0.116
150 | CCTGCGAA | -0.0211

Row | Sequence | PBM E-score
151 | CAGCAGAA | 0.0243
152 | CTAACTAG | 0.107
153 | CTACACGA | 0.0435
154 | AAACATCC | 0.0621
155 | ATGGCAAA | -0.0676
156 | AACATGAG | -0.00256
157 | CACACACA | 0.0256
158 | AGGCACAT | -0.0367
159 | CGCATGAA | 0.116
160 | AGAAGAAC | -0.101
161 | AATGTATC | 0.166
162 | TAAAACGA | -0.0435
163 | AATAGAGT | -0.312
164 | CAAGTGAG | -0.223
165 | CAATGTAA | 0.164
166 | ACAACCAG | 0.145
167 | ATGTACCC | -0.107
168 | ATTAATCA | 0.436
169 | TCATGACA | 0.301
170 | GAACGACC | -0.245
171 | CCTGAAGA | 0.0275
172 | AAAACCGA | 0.0608
